Test results from publication PMC7947244.
These are yes or no findings as the source states them, for the method shown.

Chains of the proteins cited; added tags and fusions are not shown.
UniProt Q9QUR7: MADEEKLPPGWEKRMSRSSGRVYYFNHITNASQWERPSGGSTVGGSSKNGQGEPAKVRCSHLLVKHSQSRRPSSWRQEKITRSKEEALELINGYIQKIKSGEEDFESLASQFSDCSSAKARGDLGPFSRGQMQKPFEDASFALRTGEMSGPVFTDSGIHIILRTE

Biological target: GST-Pin1 (UniProt Q9QUR7)
Assay: pull-down; GST-Pin1 held on Glutathione Sepharose 4B beads; p38 phosphopeptide T180(p) added and incubated overnight at 4 °C; washed three times with PBS, eluted with reduced glutathione (50 mM Tris pH 8.0); eluate spotted on PVDF or NC membrane and read by dot blot with a primary antibody; both purified

binding: no binding
B1: p38 phosphopeptide (TDDEMT(p)GYVATRW), phosphorylated at threonine 180 (peptide)
peptide: TDDEMTGYVATRW
modifications: phosphothreonine at 180 (T180(p))
